The record followed here is article PMC5308003.

Tags and fusion partners may be left off the protein sequences shown.

The data set deals with T1, 6His-OxyR-Like (Magnetospirillum gryphiswaldense MSR-1) (UniProt V6F1S1).
T1 sequence (looked up): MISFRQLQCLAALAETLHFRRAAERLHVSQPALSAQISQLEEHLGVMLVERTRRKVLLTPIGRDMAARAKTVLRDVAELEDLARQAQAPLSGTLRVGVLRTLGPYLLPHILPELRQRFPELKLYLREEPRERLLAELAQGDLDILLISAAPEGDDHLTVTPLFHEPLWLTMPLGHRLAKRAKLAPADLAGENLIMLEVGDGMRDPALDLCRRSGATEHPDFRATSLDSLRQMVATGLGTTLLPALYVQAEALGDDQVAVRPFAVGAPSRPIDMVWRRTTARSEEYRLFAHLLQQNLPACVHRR
Nature of the data set: DNase I footprinting. As to conditions: footprinting: 1000 ng labeled DNA, 25 uL, 25 C 30 min, DNase I 0.1 U at 37 C; salt and pH not stated; recombinant protein; residues 1-303; protein details: N-terminal 6xHis (pET-28a); label: fluorescent label; probe letters rebuilt from the primers and the genome.

In the case of “CCAGATGCTCTTCCAGTTGGGAGATTTGCGCCGACAGGGCCGGCTGCGACACGTGCAGCCGCTCGGCCGCACGGCGAAAGTGCAGGGTTTCGGCCAGGGCGGCCAGGCATTGTAATTGGCGAAAGCTGATCATGGATCACTGATAACAATTTACTATCAATATCTCAAGATATATCGATTAGAATTATCACAAAGAAGGGGGCATAGTCTCAATCACGGACAACAGCCTAATGGAGACGACGATGTCCATTCTTCGCCCCGCTTCGGATACCGCCAGCGCCTATTACAAGGCCATGCGCGAGACCGCCTTGCTGTCGGGAGAAGACGAGGCGGAGCTGATCCGCCGTTGGAAGGACGAAGGTGACGAGA (double strand) [oxyR-Like promoter footprinting fragment]”, the binding result is on record as “binds”. As for “ATCTCCGCCGACTTGGCTTTGCGCTTGGACGTGGTCGCCATGGTTCCTCCCAGGGCAGGATGATGTGAGTGCGTAGACAGATAGGTAAACCAACCTTCCCTTTTAGGCAAGGCGTTTCGCCGTCAAAAATGCTTATATTGCAATGCAATAATGGCAATTAACTGGATAATAGTTATTTATCAAAACCTAACCAGATGGGCGGGCAACGGGTGGTGCGATGCAGCAATCCTTTTGCCTCATCGGGTTAGCGCCTGACAGGGATATTGGGAGCGGGCAAACACTTGAAAACCCACCCGGCGGACAAAATCGCGCCAACCGGTCCATTTCACAATGCACCCATTCAGAGCAAACGCATGACAACAAAGCAAACAAGACTACCATGAACACAGAACCCGCCCA (double strand) [pdh promoter footprinting fragment]”, the entry is “binds”.
